{
  "sequences": {"note": "By UniProt entry, the sequences of proteins in these tests, tags left out. Where a name states a change or a piece, a line headed by the entry shows the natural chain unless it says otherwise. Residues count along the entry.", "UniProt O00458": "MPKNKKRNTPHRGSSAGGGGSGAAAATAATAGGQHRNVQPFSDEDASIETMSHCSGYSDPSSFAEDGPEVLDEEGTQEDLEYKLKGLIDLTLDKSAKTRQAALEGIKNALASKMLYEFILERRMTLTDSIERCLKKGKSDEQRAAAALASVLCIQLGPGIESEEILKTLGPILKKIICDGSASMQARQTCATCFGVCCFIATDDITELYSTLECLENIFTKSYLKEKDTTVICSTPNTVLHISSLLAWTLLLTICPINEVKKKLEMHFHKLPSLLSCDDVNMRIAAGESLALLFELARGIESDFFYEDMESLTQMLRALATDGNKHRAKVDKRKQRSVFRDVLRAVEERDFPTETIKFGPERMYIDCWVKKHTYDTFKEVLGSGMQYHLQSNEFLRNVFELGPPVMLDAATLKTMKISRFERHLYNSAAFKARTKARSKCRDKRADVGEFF", "UniProt Q6P9B9, 2-36": "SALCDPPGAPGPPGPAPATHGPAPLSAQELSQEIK", "UniProt O43719": "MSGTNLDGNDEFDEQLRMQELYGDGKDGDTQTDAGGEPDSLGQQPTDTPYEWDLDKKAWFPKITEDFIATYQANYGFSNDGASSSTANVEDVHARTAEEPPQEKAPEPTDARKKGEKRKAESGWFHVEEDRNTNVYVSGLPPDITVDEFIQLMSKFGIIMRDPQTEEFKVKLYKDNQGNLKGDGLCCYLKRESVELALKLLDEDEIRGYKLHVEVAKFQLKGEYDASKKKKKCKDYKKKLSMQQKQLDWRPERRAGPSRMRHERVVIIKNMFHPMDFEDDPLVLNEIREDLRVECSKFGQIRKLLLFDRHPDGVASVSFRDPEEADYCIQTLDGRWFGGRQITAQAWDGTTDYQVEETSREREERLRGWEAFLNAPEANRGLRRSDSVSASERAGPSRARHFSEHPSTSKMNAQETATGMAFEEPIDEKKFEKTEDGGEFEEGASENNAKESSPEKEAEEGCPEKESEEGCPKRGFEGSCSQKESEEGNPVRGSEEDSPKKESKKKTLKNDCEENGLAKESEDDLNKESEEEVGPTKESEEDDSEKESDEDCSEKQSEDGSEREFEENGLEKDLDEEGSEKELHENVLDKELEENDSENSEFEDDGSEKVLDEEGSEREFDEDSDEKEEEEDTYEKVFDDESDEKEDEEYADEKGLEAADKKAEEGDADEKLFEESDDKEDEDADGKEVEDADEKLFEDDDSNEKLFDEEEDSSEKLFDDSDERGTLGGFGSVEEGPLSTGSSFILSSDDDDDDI", "UniProt Q13123, 259-281": "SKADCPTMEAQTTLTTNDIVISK", "UniProt Q6DN90, 196-224": "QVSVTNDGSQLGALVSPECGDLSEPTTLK", "UniProt Q8TEX9": "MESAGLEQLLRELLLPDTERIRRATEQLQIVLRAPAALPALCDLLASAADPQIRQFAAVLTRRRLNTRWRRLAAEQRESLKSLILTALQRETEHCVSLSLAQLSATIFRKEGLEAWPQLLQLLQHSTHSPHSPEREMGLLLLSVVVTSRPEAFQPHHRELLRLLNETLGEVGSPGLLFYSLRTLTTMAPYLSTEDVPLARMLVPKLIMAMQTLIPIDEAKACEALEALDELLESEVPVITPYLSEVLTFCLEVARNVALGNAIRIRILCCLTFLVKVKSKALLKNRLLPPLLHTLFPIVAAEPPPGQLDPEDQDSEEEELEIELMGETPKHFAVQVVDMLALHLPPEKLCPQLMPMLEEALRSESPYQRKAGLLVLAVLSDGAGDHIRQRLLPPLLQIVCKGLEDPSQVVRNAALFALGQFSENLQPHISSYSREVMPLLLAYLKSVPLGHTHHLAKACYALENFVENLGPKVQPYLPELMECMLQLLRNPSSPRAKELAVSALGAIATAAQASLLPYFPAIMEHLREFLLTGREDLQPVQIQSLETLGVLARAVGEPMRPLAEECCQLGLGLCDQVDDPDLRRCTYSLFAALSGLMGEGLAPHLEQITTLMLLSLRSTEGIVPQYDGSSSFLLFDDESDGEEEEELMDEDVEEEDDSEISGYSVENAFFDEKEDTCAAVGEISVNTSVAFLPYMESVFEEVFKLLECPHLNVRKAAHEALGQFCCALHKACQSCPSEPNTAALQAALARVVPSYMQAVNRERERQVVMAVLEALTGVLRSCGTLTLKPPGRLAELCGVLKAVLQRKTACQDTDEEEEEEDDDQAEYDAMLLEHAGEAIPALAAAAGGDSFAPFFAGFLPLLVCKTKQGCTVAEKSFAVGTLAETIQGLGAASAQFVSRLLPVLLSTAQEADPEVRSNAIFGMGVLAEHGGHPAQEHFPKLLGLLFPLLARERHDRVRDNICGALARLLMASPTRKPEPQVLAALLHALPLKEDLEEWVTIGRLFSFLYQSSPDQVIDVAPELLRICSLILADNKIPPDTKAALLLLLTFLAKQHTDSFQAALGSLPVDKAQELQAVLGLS", "UniProt P34932": "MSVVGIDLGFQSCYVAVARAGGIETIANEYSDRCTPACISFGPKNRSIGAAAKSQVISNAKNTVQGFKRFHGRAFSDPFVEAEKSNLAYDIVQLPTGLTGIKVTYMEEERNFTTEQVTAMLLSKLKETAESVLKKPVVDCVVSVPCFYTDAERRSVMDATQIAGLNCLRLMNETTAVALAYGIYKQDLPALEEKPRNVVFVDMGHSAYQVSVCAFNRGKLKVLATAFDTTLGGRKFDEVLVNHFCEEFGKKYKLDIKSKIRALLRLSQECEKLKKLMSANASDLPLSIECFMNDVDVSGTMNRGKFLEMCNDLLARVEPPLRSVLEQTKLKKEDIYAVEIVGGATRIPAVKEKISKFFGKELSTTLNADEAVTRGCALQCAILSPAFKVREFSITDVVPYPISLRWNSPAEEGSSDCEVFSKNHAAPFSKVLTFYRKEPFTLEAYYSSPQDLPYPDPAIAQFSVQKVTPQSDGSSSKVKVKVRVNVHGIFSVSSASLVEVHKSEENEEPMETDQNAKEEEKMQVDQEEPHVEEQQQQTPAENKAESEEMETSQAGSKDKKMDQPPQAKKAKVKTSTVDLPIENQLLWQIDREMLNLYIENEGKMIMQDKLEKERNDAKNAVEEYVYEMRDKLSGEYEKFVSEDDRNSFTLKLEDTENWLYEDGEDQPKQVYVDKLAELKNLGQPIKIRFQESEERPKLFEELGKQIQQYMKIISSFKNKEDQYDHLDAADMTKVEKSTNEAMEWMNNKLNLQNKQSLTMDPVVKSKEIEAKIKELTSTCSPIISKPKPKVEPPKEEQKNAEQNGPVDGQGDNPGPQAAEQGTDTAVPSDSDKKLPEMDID", "UniProt Q9NVR2, whole entry, looked up": "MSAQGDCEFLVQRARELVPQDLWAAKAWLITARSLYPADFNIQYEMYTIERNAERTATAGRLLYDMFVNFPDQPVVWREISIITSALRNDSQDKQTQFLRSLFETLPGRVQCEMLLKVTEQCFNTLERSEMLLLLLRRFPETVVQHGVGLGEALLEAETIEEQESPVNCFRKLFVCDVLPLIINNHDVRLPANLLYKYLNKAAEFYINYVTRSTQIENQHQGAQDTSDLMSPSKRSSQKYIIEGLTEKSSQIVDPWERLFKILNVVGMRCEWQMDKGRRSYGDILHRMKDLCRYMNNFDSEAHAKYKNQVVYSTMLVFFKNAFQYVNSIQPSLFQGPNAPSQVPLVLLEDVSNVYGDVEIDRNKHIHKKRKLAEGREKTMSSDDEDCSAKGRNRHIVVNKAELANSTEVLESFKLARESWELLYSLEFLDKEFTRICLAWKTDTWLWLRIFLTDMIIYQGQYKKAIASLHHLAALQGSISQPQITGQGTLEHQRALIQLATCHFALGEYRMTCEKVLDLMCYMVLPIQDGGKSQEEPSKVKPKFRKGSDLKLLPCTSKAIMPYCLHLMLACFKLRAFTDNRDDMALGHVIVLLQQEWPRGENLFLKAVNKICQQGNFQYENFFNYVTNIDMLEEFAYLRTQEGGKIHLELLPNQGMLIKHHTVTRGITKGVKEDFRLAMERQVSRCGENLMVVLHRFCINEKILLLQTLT", "UniProt Q27J81, whole entry, looked up": "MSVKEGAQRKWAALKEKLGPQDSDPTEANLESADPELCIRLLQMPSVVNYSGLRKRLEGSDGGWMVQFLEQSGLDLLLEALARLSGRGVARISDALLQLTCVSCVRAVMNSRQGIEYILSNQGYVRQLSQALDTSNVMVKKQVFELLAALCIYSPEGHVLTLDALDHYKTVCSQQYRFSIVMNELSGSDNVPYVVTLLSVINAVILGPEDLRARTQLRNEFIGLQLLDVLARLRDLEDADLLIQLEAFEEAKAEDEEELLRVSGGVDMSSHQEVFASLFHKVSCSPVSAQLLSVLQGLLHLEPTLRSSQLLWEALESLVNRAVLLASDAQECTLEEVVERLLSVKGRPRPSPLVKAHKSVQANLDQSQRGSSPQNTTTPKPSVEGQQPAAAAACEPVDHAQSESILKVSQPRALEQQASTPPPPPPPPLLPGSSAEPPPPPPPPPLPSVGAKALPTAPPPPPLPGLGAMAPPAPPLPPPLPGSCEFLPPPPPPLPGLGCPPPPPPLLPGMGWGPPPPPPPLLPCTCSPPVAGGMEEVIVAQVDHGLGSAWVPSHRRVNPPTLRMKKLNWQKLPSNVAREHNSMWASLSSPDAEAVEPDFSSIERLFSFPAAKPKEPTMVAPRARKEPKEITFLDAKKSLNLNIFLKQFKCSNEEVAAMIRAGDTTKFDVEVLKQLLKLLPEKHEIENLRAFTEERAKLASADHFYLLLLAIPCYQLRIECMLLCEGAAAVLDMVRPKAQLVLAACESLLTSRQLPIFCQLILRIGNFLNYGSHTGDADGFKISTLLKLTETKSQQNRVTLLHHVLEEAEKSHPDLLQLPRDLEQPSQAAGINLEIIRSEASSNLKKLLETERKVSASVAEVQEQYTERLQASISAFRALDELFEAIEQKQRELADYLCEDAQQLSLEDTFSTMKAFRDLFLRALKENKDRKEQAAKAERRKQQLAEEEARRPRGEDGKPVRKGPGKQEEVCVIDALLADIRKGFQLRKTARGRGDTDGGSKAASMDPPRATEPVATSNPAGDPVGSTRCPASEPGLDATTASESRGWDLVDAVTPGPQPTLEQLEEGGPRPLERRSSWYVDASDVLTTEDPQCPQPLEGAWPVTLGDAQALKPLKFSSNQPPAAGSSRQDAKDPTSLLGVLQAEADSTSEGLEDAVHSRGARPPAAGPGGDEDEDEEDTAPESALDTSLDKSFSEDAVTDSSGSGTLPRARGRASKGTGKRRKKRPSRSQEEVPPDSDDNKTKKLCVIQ", "UniProt Q9BT40": "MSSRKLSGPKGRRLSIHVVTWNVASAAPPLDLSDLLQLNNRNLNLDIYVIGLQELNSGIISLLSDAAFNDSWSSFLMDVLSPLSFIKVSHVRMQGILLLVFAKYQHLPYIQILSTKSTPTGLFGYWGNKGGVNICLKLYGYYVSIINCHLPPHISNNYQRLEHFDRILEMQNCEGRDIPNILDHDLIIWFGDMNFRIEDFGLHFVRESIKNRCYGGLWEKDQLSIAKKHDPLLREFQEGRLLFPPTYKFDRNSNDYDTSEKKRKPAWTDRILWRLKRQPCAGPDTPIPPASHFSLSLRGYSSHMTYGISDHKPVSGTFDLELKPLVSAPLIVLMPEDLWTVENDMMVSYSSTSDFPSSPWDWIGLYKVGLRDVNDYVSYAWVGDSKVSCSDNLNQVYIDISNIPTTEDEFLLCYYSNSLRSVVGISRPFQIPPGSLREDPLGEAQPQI", "UniProt P48200": "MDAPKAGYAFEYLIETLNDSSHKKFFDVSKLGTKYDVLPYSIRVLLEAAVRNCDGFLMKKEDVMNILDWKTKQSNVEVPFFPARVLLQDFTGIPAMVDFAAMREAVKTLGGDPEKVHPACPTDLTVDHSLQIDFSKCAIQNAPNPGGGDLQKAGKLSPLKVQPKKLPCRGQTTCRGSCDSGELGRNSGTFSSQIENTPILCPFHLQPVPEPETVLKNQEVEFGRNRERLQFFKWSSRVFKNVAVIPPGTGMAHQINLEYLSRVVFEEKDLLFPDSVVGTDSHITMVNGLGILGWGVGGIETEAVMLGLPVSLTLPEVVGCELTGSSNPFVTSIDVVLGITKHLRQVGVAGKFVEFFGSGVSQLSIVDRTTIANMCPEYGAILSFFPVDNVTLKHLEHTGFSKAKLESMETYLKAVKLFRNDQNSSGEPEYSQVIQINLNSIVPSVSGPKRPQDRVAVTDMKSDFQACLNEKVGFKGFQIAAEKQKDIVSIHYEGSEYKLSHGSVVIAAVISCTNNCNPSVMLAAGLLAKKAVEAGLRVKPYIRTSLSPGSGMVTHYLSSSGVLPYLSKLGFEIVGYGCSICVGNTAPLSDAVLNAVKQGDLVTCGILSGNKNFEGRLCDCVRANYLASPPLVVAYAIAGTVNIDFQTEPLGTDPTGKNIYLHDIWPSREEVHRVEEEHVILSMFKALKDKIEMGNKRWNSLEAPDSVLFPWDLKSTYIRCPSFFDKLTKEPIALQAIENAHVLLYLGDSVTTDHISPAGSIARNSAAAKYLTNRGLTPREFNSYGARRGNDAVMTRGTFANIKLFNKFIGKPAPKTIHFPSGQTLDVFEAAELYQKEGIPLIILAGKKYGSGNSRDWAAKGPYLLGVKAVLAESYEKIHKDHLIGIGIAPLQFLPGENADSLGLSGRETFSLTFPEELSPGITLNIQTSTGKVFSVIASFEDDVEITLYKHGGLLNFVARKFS"},
  "source": "the supplement of paper PMC11732987",
  "about": "“Enantioselective OTUD7B fragment discovery through chemoproteomics screening and high-throughput optimisation” (Communications Chemistry, 2025)",
  "note": "The list shows a part of the results. The data scatter; read single values as rough.",
  "data": [
    {"compound": "ClCC(=O)N[C@@H]1CCCc2ccccc12", "experiment": "log2 mean competition ratio of IA-DTB cysteine labelling (DMSO/compound) (log2 ratio); higher = stronger cysteine engagement by compound", "conditions": "50 µM; treatment time: 4 h; cell line lysate: HEK293T", "experimental": "(§1)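 IA-DTB competitive cysteine chemoproteomics in HEK293T RIPA lysate. Lysates were treated with compound 29 or 30 at 50 or 200 µM for 4 h, then IA-DTB (500 µM, 1 h), trypsin-digested, NeutrAvidin-enriched and analysed by diaPASEF. Competition ratio = intensity DMSO / intensity compound (n=4 treated, n=64 DMSO); binding: mean log2 CR ≥ 1 and p ≤ 0.05 plus QC filters. Target is the cysteine site.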", "values": [
      {"target": "HPS5 C222 (UniProt Q9UPZ3)", "log2 mean competition ratio": -0.217},
      {"target": "IFRD1 C178 (UniProt O00458)", "log2 mean competition ratio": 0.15},
      {"target": "IQGAP3 C919 (UniProt Q86VI3)", "log2 mean competition ratio": 0.0988},
      {"target": "IMPDH1 C215 (UniProt P20839)", "log2 mean competition ratio": 0.272},
      {"target": "HTT C1961 (UniProt P42858)", "log2 mean competition ratio": 0.112},
      {"target": "IPO7 C749 (UniProt O95373)", "log2 mean competition ratio": -0.213},
      {"target": "IFT172 C1727 (UniProt Q9UG01)", "log2 mean competition ratio": 0.0704},
      {"target": "INTS5 C5 (UniProt Q6P9B9)", "log2 mean competition ratio": -0.224},
      {"target": "IL13RA1 C282 (UniProt P78552)", "log2 mean competition ratio": -0.0622},
      {"target": "HTATSF1 C471 (UniProt O43719)", "log2 mean competition ratio": -0.0278},
      {"target": "HTT C942 (UniProt P42858)", "log2 mean competition ratio": 0.0958},
      {"target": "IK C263 (UniProt Q13123)", "log2 mean competition ratio": -0.31},
      {"target": "INTS1 C1866 (UniProt Q8N201)", "log2 mean competition ratio": -0.00242},
      {"target": "IFT81 C648 (UniProt Q8WYA0)", "log2 mean competition ratio": -0.422},
      {"target": "IFT172 C1430 (UniProt Q9UG01)", "log2 mean competition ratio": 0.0674},
      {"target": "IDH3A C222 (UniProt P50213)", "log2 mean competition ratio": -0.265},
      {"target": "IQSEC1 C214 (UniProt Q6DN90)", "log2 mean competition ratio": -0.506},
      {"target": "HPCAL1 C185 (UniProt P37235)", "log2 mean competition ratio": -0.252},
      {"target": "IPO4 C797 (UniProt Q8TEX9)", "log2 mean competition ratio": -0.118},
      {"target": "IDH1 C73 (UniProt O75874)", "log2 mean competition ratio": -0.447},
      {"target": "HSPA4 C245 (UniProt P34932)", "log2 mean competition ratio": -0.383},
      {"target": "INTS10 C270 (UniProt Q9NVR2)", "log2 mean competition ratio": 0.294},
      {"target": "HPS4 C183 (UniProt Q9NQG7)", "log2 mean competition ratio": -0.0183},
      {"target": "IPO4 C708 (UniProt Q8TEX9)", "log2 mean competition ratio": 0.109},
      {"target": "HSPA4 C270 (UniProt P34932)", "log2 mean competition ratio": -0.129},
      {"target": "INF2 C172 (UniProt Q27J81)", "log2 mean competition ratio": 0.168},
      {"target": "INF2 C1029 (UniProt Q27J81)", "log2 mean competition ratio": 0.0365},
      {"target": "IFT81 C535 (UniProt Q8WYA0)", "log2 mean competition ratio": 0.0448},
      {"target": "IQGAP1 C1534 (UniProt P46940)", "log2 mean competition ratio": -0.0958},
      {"target": "ILVBL C568 (UniProt A1L0T0)", "log2 mean competition ratio": 0.175},
      {"target": "HROB C236", "log2 mean competition ratio": -0.0796},
      {"target": "INPP5K C173 (UniProt Q9BT40)", "log2 mean competition ratio": -0.0334},
      {"target": "IQGAP3 C1515 (UniProt Q86VI3)", "log2 mean competition ratio": 0.0041},
      {"target": "IREB2 C178 (UniProt P48200)", "log2 mean competition ratio": -0.0355},
      {"target": "IMMT C603", "log2 mean competition ratio": -0.035},
      {"target": "HOXD13 C40", "log2 mean competition ratio": 0.359}
    ]},
    {"compound": "ClCC(=O)N[C@@H]1CCCc2ccccc12", "experiment": "log2 mean competition ratio of IA-DTB cysteine labelling (DMSO/compound) (log2 ratio); higher = stronger cysteine engagement by compound", "conditions": "200 µM; treatment time: 4 h; cell line lysate: HEK293T", "experimental": "as §1", "values": [
      {"target": "HPS5 C222 (UniProt Q9UPZ3)", "log2 mean competition ratio": 0.292},
      {"target": "IFRD1 C178 (UniProt O00458)", "log2 mean competition ratio": -0.21},
      {"target": "IQGAP3 C919 (UniProt Q86VI3)", "log2 mean competition ratio": 0.261},
      {"target": "IMPDH1 C215 (UniProt P20839)", "log2 mean competition ratio": 0.255},
      {"target": "HTT C1961 (UniProt P42858)", "log2 mean competition ratio": 0.15},
      {"target": "IPO7 C749 (UniProt O95373)", "log2 mean competition ratio": 0.115},
      {"target": "IFT172 C1727 (UniProt Q9UG01)", "log2 mean competition ratio": 0.266},
      {"target": "INTS5 C5 (UniProt Q6P9B9)", "log2 mean competition ratio": 0.196},
      {"target": "ID1 C17 (UniProt P41134)", "log2 mean competition ratio": 0.104},
      {"target": "HTATSF1 C471 (UniProt O43719)", "log2 mean competition ratio": 0.385},
      {"target": "HTT C942 (UniProt P42858)", "log2 mean competition ratio": -0.0566},
      {"target": "IK C263 (UniProt Q13123)", "log2 mean competition ratio": -0.326},
      {"target": "INTS1 C1866 (UniProt Q8N201)", "log2 mean competition ratio": 0.272},
      {"target": "IFT172 C1430 (UniProt Q9UG01)", "log2 mean competition ratio": -0.0172},
      {"target": "IDH3A C222 (UniProt P50213)", "log2 mean competition ratio": 0.11},
      {"target": "IQSEC1 C214 (UniProt Q6DN90)", "log2 mean competition ratio": -0.17},
      {"target": "HPCAL1 C185 (UniProt P37235)", "log2 mean competition ratio": -0.112},
      {"target": "IPO4 C797 (UniProt Q8TEX9)", "log2 mean competition ratio": 0.108},
      {"target": "IDH1 C73 (UniProt O75874)", "log2 mean competition ratio": 0.218},
      {"target": "HSPA4 C245 (UniProt P34932)", "log2 mean competition ratio": 0.139},
      {"target": "INTS10 C270 (UniProt Q9NVR2)", "log2 mean competition ratio": 0.115},
      {"target": "HPS4 C183 (UniProt Q9NQG7)", "log2 mean competition ratio": 0.223},
      {"target": "IPO4 C708 (UniProt Q8TEX9)", "log2 mean competition ratio": 0.0201},
      {"target": "HSPA4 C270 (UniProt P34932)", "log2 mean competition ratio": 0.369},
      {"target": "INF2 C172 (UniProt Q27J81)", "log2 mean competition ratio": -0.167},
      {"target": "INF2 C1029 (UniProt Q27J81)", "log2 mean competition ratio": -0.177},
      {"target": "IFT81 C535 (UniProt Q8WYA0)", "log2 mean competition ratio": 0.00602},
      {"target": "ICA1L C124", "log2 mean competition ratio": -0.00986},
      {"target": "IQGAP1 C1534 (UniProt P46940)", "log2 mean competition ratio": -0.289},
      {"target": "ILVBL C568 (UniProt A1L0T0)", "log2 mean competition ratio": -0.0197},
      {"target": "HROB C236", "log2 mean competition ratio": 0.412},
      {"target": "INPP5K C173 (UniProt Q9BT40)", "log2 mean competition ratio": -0.0969},
      {"target": "IQGAP3 C1515 (UniProt Q86VI3)", "log2 mean competition ratio": 0.158},
      {"target": "IREB2 C178 (UniProt P48200)", "log2 mean competition ratio": 0.397},
      {"target": "IMMT C603", "log2 mean competition ratio": -0.325},
      {"target": "HOXD13 C40", "log2 mean competition ratio": 0.104}
    ]},
    {"compound": "ClCC(=O)N[C@H]1CCCc2ccccc12", "experiment": "log2 mean competition ratio of IA-DTB cysteine labelling (DMSO/compound) (log2 ratio); higher = stronger cysteine engagement by compound", "conditions": "50 µM; treatment time: 4 h; cell line lysate: HEK293T", "experimental": "as §1", "values": [
      {"target": "HPS5 C222 (UniProt Q9UPZ3)", "log2 mean competition ratio": 0.0562},
      {"target": "IFRD1 C178 (UniProt O00458)", "log2 mean competition ratio": -0.222},
      {"target": "IQGAP3 C919 (UniProt Q86VI3)", "log2 mean competition ratio": -0.305},
      {"target": "IMPDH1 C215 (UniProt P20839)", "log2 mean competition ratio": 0.0667},
      {"target": "HTT C1961 (UniProt P42858)", "log2 mean competition ratio": -0.789},
      {"target": "IPO7 C749 (UniProt O95373)", "log2 mean competition ratio": 0.844},
      {"target": "IFT172 C1727 (UniProt Q9UG01)", "log2 mean competition ratio": -0.267},
      {"target": "INTS5 C5 (UniProt Q6P9B9)", "log2 mean competition ratio": 0.239},
      {"target": "IL13RA1 C282 (UniProt P78552)", "log2 mean competition ratio": -0.316},
      {"target": "ID1 C17 (UniProt P41134)", "log2 mean competition ratio": -0.346},
      {"target": "HTATSF1 C471 (UniProt O43719)", "log2 mean competition ratio": 0.127},
      {"target": "HTT C942 (UniProt P42858)", "log2 mean competition ratio": -0.133},
      {"target": "IK C263 (UniProt Q13123)", "log2 mean competition ratio": 0.352},
      {"target": "INTS1 C1866 (UniProt Q8N201)", "log2 mean competition ratio": 0.201},
      {"target": "IFT81 C648 (UniProt Q8WYA0)", "log2 mean competition ratio": 0.00893},
      {"target": "IFT172 C1430 (UniProt Q9UG01)", "log2 mean competition ratio": 0.189},
      {"target": "IDH3A C222 (UniProt P50213)", "log2 mean competition ratio": -0.0793},
      {"target": "IQSEC1 C214 (UniProt Q6DN90)", "log2 mean competition ratio": -0.126},
      {"target": "HPCAL1 C185 (UniProt P37235)", "log2 mean competition ratio": 0.411},
      {"target": "IPO4 C797 (UniProt Q8TEX9)", "log2 mean competition ratio": -0.259},
      {"target": "IDH1 C73 (UniProt O75874)", "log2 mean competition ratio": -0.443},
      {"target": "HSPA4 C245 (UniProt P34932)", "log2 mean competition ratio": -0.156},
      {"target": "INTS10 C270 (UniProt Q9NVR2)", "log2 mean competition ratio": -0.118},
      {"target": "HPS4 C183 (UniProt Q9NQG7)", "log2 mean competition ratio": -0.0477},
      {"target": "IPO4 C708 (UniProt Q8TEX9)", "log2 mean competition ratio": -0.524},
      {"target": "HSPA4 C270 (UniProt P34932)", "log2 mean competition ratio": -0.0514},
      {"target": "INF2 C172 (UniProt Q27J81)", "log2 mean competition ratio": -0.0881},
      {"target": "INF2 C1029 (UniProt Q27J81)", "log2 mean competition ratio": -0.239},
      {"target": "IFT81 C535 (UniProt Q8WYA0)", "log2 mean competition ratio": -0.0907},
      {"target": "ICA1L C124", "log2 mean competition ratio": 0.447},
      {"target": "IQGAP1 C1534 (UniProt P46940)", "log2 mean competition ratio": 0.744},
      {"target": "ILVBL C568 (UniProt A1L0T0)", "log2 mean competition ratio": 0.446},
      {"target": "HROB C236", "log2 mean competition ratio": 0.678},
      {"target": "INPP5K C173 (UniProt Q9BT40)", "log2 mean competition ratio": 0.11},
      {"target": "IQGAP3 C1515 (UniProt Q86VI3)", "log2 mean competition ratio": -0.511},
      {"target": "IREB2 C178 (UniProt P48200)", "log2 mean competition ratio": -0.00538},
      {"target": "IMMT C603", "log2 mean competition ratio": -0.683},
      {"target": "HOXD13 C40", "log2 mean competition ratio": -0.0645}
    ]}
  ]
}
